{"source": "paper PMC9263537", "about": "(Pharmacology Research & Perspectives, 2022)", "key": {"[1]": {"details": "mean population model parameter; cited from earlier work"}, "[2]": {"details": "bootstrap, for an individual of 75 kg"}}}
{"smiles": "CC(C)c1c(C(=O)Nc2ccccc2)c(-c2ccccc2)c(-c2ccc(F)cc2)n1CC[C@@H](O)C[C@@H](O)CC(=O)O", "note": "[atorvastatin]", "values": [{"measurement": "ω^2 V1/F, Bootstrap mean [95%CI]", "setting": "bootstrap 1000 replicates", "value": "0.517 [0.218–0.822]"}, {"measurement": "ω^2 V2/F, Bootstrap mean [95%CI]", "setting": "bootstrap 1000 replicates", "value": "0.110 [0.0655–0.172]"}, {"measurement": "Cl2/F, Bootstrap mean [95%CI]", "setting": "[2]", "value": "890 [668–1122] L/h"}, {"measurement": "Cl/F, Bootstrap mean [95%CI]", "setting": "[2]", "value": "617 [551–691] L/h"}, {"measurement": "V1/F, Bootstrap mean [95%CI]", "setting": "[2]", "value": "1709 [1253–2224] L"}, {"measurement": "V2/F, Bootstrap mean [95%CI]", "setting": "[2]", "value": "4229 [3573–4918] L"}, {"measurement": "Between subject variability ω^2 Cl/f, Estimates", "setting": "final model", "value": 0.151}, {"measurement": "Between subject variability ω^2 V1/F, Estimates", "setting": "final model", "value": 0.625}, {"measurement": "Between subject variability ω^2 V2/F, Estimates", "setting": "final model", "value": 0.111}, {"measurement": "Cl2/F, Estimates", "setting": "for an individual of 75 kg", "value": 873, "unit": "L/h"}, {"measurement": "Cl/F, Estimates", "setting": "for an individual of 75 kg", "value": 620, "unit": "L/h"}, {"measurement": "V1/F, Estimates", "setting": "for an individual of 75 kg", "value": 1843, "unit": "L"}, {"measurement": "V2/F, Estimates", "setting": "for an individual of 75 kg", "value": 4184, "unit": "L"}, {"measurement": "mean difference in drug absorption delay (T50)", "setting": "placebo vs semaglutide co-administration", "value": 67, "unit": "min"}, {"measurement": "Cl2/F", "setting": "[1]", "value": 1880, "unit": "L/h"}, {"measurement": "Cl/F", "setting": "[1]", "value": 504, "unit": "L/h"}, {"measurement": "V1/F", "setting": "[1]", "value": 3250, "unit": "L"}, {"measurement": "V2/F", "setting": "[1]", "value": 2170, "unit": "L"}]}
